According to paper PMC1459871:
These are yes or no findings as the source states them, for the method shown. Binding seen in cells or lysates may run through a third protein. Binding calls can cover weak binding; strength is not graded here. Where a sequence is shown, tags or fusion partners need not be part of it.

Sequences of proteins named here, by UniProt entry; tags and fusion partners are left off. A change or cut given only in a name is not applied to a line headed by its entry.
UniProt O60565: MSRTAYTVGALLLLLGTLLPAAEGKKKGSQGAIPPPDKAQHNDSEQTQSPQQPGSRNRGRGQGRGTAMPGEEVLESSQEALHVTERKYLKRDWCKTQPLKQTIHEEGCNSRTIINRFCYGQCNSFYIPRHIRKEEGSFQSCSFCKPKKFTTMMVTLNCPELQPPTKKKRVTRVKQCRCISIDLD

How the values were obtained:
Test in all cases: pull-down; GST-PIG-2 constructs or GST alone on glutathione-sepharose, incubated 12 h at 4° with HEK 293 lysate expressing full-length YWHAH; washed with NETN (300 mM NaCl, 0.5% NP-40); blot with anti-Myc; only the target purified
GST-PIG-2 (1-67) (human) = GST-PIG-2 (1-67) (human) (UniProt O60565)
[1] = molecular target: GST-PIG-2 (1-100) (human) (UniProt O60565)
[2] = molecular target: GST-PIG-2 full length (1-184) (human) (UniProt O60565)

Measured: binding

B1: Myc-tagged YWHAH (tyrosine 3-monooxygenase/tryptophan 5-monooxygenase activation protein, eta polypeptide; 14-3-3 eta), full length (protein, UniProt Q04917 1-246)
chain: MGDREQLLQRARLAEQAERYDDMASAMKAVTELNEPLSNEDRNLLSVAYKNVVGARRSSWRVISSIEQKTMADGNEKKLEKVKAYREKIEKELETVCNDVLSLLDKFLIKNCNDFQYESKVFYLKMKGDYYRYLAEVASGEKKNSVVEASEAAYKEAFEISKEQMQPTHPIRLGLALNFSVFYYEIQNAPEQACLLAKQAFDDAIAELDTLNEDSYKDSTLIMQLLRDNLTLWTSDQQDEEAGEGN
binds: GST-PIG-2 (1-67) (human) | [1] | [2]
